In patent US9944597B2, “Polysubstituted pyrroles having microtubule-disrupting, cytotoxic and antitumor activities and methods of use thereof” (THE BOARD OF REGENTS OF THE UNIVERSITY OF TEXAS SYSTEM, priority 2013, dated 2018):

What was measured:
A-10 cells [1] = experiment: Cellular microtubule loss by indirect immunofluorescence; type: cell-based, rat
Procedure: The effects of representative compounds on cellular microtubules were evaluated in A-10 (embryonic rat vascular smooth muscle cell line) cells using indirect immunofluorescence techniques as previously described (Tinley et al., Cancer Res. 63, 3211-20 (2003)). Cells were visualized using a Nikon Eclipse 80i fluorescence microscope and NIS Elements software. Changes in both interphase and mitotic microtubules were noted and photographed. The EC50 values, the concentration that causes approximately 50% loss of interphase microtubules was determined by evaluating a range of concentrations of each compound and the percent cellular microtubule depolymerization that was observed visually at each concentration was noted.
Microtubules were visualized by indirect immunofluorescence using a β-tubulin antibody, and the DNA was visualized with DAPI. A representative concentration response curve for NT-7-16 is also shown in FIG. 1 that was used to calculate its corresponding EC50 for microtubule loss. Concentration response curves for microtubule loss were plotted using data from at least three experiments for each compound and the corresponding EC50 values for microtubule loss are presented in Table 50.

A-10 cells [2] = details: Table 53; literature data from Da et al. 2013; cited from earlier work
[3] = Table 52, microtubule loss EC50 over MDA-MB-435 IC50

For `CCOC(=O)c1[nH]c(CO)c(-c2ccc(OC)c(OC)c2OC)c1Br` [Example 5, 3-Bromo-5-(hydroxymethyl)-4-(2,3,4-trimethoxyphenyl)-1H-pyrrole 2-carboxylic acid ethyl ester], the EC50/IC50 (A-10 cells [1]; [3]) was 3.0.
Compound `CCOC(=O)c1[nH]c(CN)c(-c2ccc(OC)c(OC)c2OC)c1Br` [Example 13, 5-(Aminomethylene)-3-Bromo-4-(2,3,4-trimethoxyphenyl)-1H-pyrrole 2-carboxylic acid ethyl ester] has an EC50/IC50 (A-10 cells [1]; [3]) of 2.3.
`CCCNC=C1NC(C(=O)OCC)C(Br)=C1c1ccc(OC)c(OC)c1OC` (stereo not drawn) [Example 17, 3-Bromo-5-(N-Propylaminomethylene)-4-(2,3,4-trimethoxyphenyl)-1H-pyrrole 2-carboxylic acid ethyl ester] showed an EC50/IC50 (A-10 cells [1]; [3]) of 1.9.
`CCOC(=O)c1[nH]c(C=NOC)c(-c2ccc(OC)c(OC)c2OC)c1Br` (mixture of isomers) [Example 12, Cis/Trans-3-Bromo-4-(2,3,4-trimethoxyphenyl)-5-(O-methyl-oximino)-1H-pyrrole-2-carboxylic acid ethyl ester] gave an EC50/IC50 (A-10 cells [1]; [3]) of 2.9.
Work on `C=Cc1[nH]c(C(=O)OCC)c(Br)c1-c1ccc(OC)c(OC)c1OC` [Example 7, 3-Bromo-5-vinyl-4-(2,3,4-trimethoxyphenyl)-1H-pyrrole 2-carboxylic acid ethyl ester] yielded an EC50/IC50 (A-10 cells [1]; [3]) of 2.3.
For `CCOC(=O)c1[nH]c(C=O)c(-c2ccc(OC)c(OC)c2OC)c1Cl` [Example 3, 3-Chloro-4-(2,3,4-trimethoxyphenyl)-5-formyl-1H-pyrrole 2-carboxylic acid ethyl ester], the EC50/IC50 (A-10 cells [1]; [3]) was 1.7.
Compound `CCOC(=O)c1[nH]c(C=NO)c(-c2ccc(OC)c(OC)c2OC)c1Br` (mixture of isomers) [Example 10a, Cis/Trans-3-Bromo-4-(2,3,4-trimethoxyphenyl)-5-oximino-1H-pyrrole 2-carboxylic acid ethyl ester] has an EC50/IC50 (A-10 cells [1]; [3]) of 3.3.
Compound `CCOC(=O)c1[nH]c(C=NO)c(-c2ccc(OC)c(OC)c2OC)c1Br` [Example 10c] has an EC50/IC50 (A-10 cells [1]; [3]) of 4.
For `CCOC(=O)c1[nH]c(C(F)F)c(-c2ccc(OC)c(OC)c2OC)c1Br` [Example 6, 3-Bromo-4-(2,3,4-trimethoxyphenyl)-5-(difluoromethinyl)-1H-pyrrole 2-carboxylic acid ethyl ester], the EC50/IC50 (A-10 cells [1]; [3]) was 2.8.
`CCOC(=O)c1[nH]c(C#N)c(-c2ccc(OC)c(OC)c2OC)c1Br` [Example 11, 3-Bromo-4-(2,3,4-trimethoxyphenyl)-5-cyano-1H-pyrrole 2-carboxylic acid ethyl ester] showed an EC50/IC50 (A-10 cells [1]; [3]) of 4.5.
`CCOC(=O)c1[nH]c(CN)c(-c2ccc(OC)c(OC)c2OC)c1Cl` [Example 14] gave an EC50/IC50 (A-10 cells [1]; [3]) of 2.7.
Work on `CCOC(=O)c1[nH]c(C(=O)O)c(-c2ccc(OC)c(OC)c2OC)c1Br` [Example 9, 3-Bromo-4-(2,3,4-trimethoxyphenyl)-5-carboxy-1H-pyrrole 2-carboxylic acid ethyl ester] yielded an EC50/IC50 (A-10 cells [1]; [3]) of 3.
Work on “Cis-3-Bromo-4-(2,3,4-trimethoxyphenyl)-5-oximino-1H-pyrrole 2-carboxylic acid ethyl ester [Example 10b]” yielded an EC50/IC50 (A-10 cells [1]; [3]) of 4.2.
Work on `CCOC(=O)c1[nH]c(/C=C\C(=O)OC)c(-c2ccc(OC)c(OC)c2OC)c1Br` [Example 8a, Cis-3-Bromo-5-(3-methoxy-3-oxoprop-1-en-1-yl)-4-(2,3,4-trimethoxyphenyl)-1H-pyrrole-2-carboxylic acid ethyl ester] yielded an EC50/IC50 (A-10 cells [1]; [3]) of 2.3.
Work on `CCCNC=C1NC(C(=O)OCC)C(Cl)=C1c1ccc(OC)c(OC)c1OC` (stereo not drawn) [Example 18, 3-Chloro-5-(N-Propylaminomethylene)-4-(2,3,4-Trimethoxyphenyl)-1H-pyrrole 2-carboxylic acid ethyl ester] yielded an EC50/IC50 (A-10 cells [1]; [3]) of 2.5.
`CCOC(=O)c1[nH]c(Br)c(-c2ccc(OC)c(OC)c2OC)c1Br` [NT-7-16, 3,5-Dibromo-4-(2,3,4-trimethoxyphenyl)-1H-pyrrole-2-carboxylic acid ethyl ester] gave an EC50/IC50 (A-10 cells [1]; Table 53, own compounds) of 3.3.
Work on `CCOC(=O)c1[nH]c(C=O)c(-c2ccc(OC)c(OC)c2OC)c1Br` [Example 2, 3-Bromo-4-(2,3,4-trimethoxyphenyl)-5-formyl-1H-pyrrole 2-carboxylic acid ethyl ester] yielded an EC50/IC50 (A-10 cells [1]; [3]) of 1.2.
In the case of `CCOC(=O)c1[nH]c(C=O)c(-c2ccc(OC)c(OC)c2OC)c1I` [Example 4, 3-Iodo-4-(2,3,4-trimethoxyphenyl)-5-formyl-1H-pyrrole 2-carboxylic acid ethyl ester], the EC50/IC50 (A-10 cells [1]; [3]) is reported as 1.7.
With `CCOC(=O)c1[nH]c(/C=C/C(=O)OC)c(-c2ccc(OC)c(OC)c2OC)c1Br` [Example 8b, Trans-3-Bromo-5-(3-methoxy-3-oxoprop-1-en-1-yl)-4-(2,3,4-trimethoxyphenyl)-1H-pyrrole-2-carboxylic acid ethyl ester] the EC50/IC50 (A-10 cells [1]; [3]) was 2.6.
For `CCOC(=O)c1[nH]c(Br)c(-c2ccc(OC)c(OC)c2)c1Br` [JG-03-14, 4-[(3,4-dimethoxy)-phenyl]-3,5-dibromopyrrole 2-carboxylic acid ethyl ester], the EC50/IC50 (A-10 cells [2]) is listed as 13.6.
Work on `CCOC(=O)c1[nH]c(C=NO)c(-c2ccc(OC)c(OC)c2OC)c1Cl` (mixture of isomers) [Example 21, Cis/Trans-3-chloro-4-(2,3,4-trimethoxyphenyl)-5-oximino-1H-pyrrole 2-carboxylic acid ethyl ester] yielded an EC50/IC50 (A-10 cells [1]; [3]) of 1.9.

Like-named read-outs stand apart in the source and are kept apart here.
